Values quoted from earlier work, collected in patent US11129801B2 (SigmaThera SAS, priority 2016, dated 2021).

Test system: sigma-1R
Details: read-out: IC50 / affinity for sigma-1R; cited from earlier work

With `O=C(CCCN1CCC(O)(c2ccc(Cl)cc2)CC1)c1ccc(F)cc1` [haloperidol] as the molecule, how does the IC50 read?
The IC50 was 24 ± 6 nM.
